{"source": "PubChem BioAssay AID1259425, University of Nebraska Medical Center – 2018", "aim": "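Seek colon cancer weak points whose silencing resembles KSR1 loss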 (primary screen)", "cell system": "HCT116 human colon cancer cells", "reagent": "siRNA pool against human genes, 50 nM siRNA", "read-out": "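mRNA of six signature genes measured together by branched-DNA assay after 50 nM siRNA pool, blank removed, divided by geometric mean of two housekeeping genes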", "scale": "BNIP3L mRNA: higher = more BNIP3L transcript after knockdown", "note": "In all, the deposit lists about 14,000 reagents; shown is an unselected part. A reagent listed more than once was tested more than once; the source does not tell the runs apart. Further read-outs or replicates are left out here. The record does not give: the time to read-out."}
{"gene knocked down":"TEX14 (testis expressed 14, intercellular bridge forming factor)","PubChem SID":"SID364003562","BNIP3L mRNA, set 1":0.0862}
{"gene knocked down":"MMP9 (matrix metallopeptidase 9)","PubChem SID":"SID363995933","BNIP3L mRNA, set 1":0.072}
{"gene knocked down":"HDAC11 (histone deacetylase 11)","PubChem SID":"SID364003092","BNIP3L mRNA, set 1":0.0948}
{"gene knocked down":"EPHB4 (EPH receptor B4)","PubChem SID":"SID363995426","BNIP3L mRNA, set 1":0.0934}
{"gene knocked down":"INPP5E (inositol polyphosphate-5-phosphatase E)","PubChem SID":"SID364001468","BNIP3L mRNA, set 1":0.211}
{"gene knocked down":"CD160 (CD160 molecule)","PubChem SID":"SID363997784","BNIP3L mRNA, set 1":0.122}
{"gene knocked down":"SEMG1 (semenogelin 1)","PubChem SID":"SID363994157","BNIP3L mRNA, set 1":0.201}
{"gene knocked down":"PCDHGA12 (protocadherin gamma subfamily A, 12)","PubChem SID":"SID363994802","BNIP3L mRNA, set 1":0.0707}
{"gene knocked down":"KCNA6 (potassium voltage-gated channel subfamily A member 6)","PubChem SID":"SID363993435","BNIP3L mRNA, set 1":0.147}

3 entries from above, set out differently:
MMP9 (matrix metallopeptidase 9) [SID363995933]
- BNIP3L mRNA, set 1: 0.072

HDAC11 (histone deacetylase 11) [SID364003092]
- BNIP3L mRNA, set 1: 0.0948

EPHB4 (EPH receptor B4) [SID363995426]
- BNIP3L mRNA, set 1: 0.0934

Further records:
{"gene knocked down":"FBXL5 (F-box and leucine rich repeat protein 5)","PubChem SID":"SID363998105","BNIP3L mRNA, set 1":0.0553}
{"gene knocked down":"MALL (mal, T cell differentiation protein like)","PubChem SID":"SID363996340","BNIP3L mRNA, set 1":0.0946}
{"gene knocked down":"LGI2 (leucine rich repeat LGI family member 2)","PubChem SID":"SID364000847","BNIP3L mRNA, set 1":0.397}
{"gene knocked down":"EOMES (eomesodermin)","PubChem SID":"SID363996348","BNIP3L mRNA, set 1":0.0657}
{"gene knocked down":"POU3F2 (POU class 3 homeobox 2)","PubChem SID":"SID363996499","BNIP3L mRNA, set 1":0.373}
{"gene knocked down":"TBC1D9B (TBC1 domain family member 9B)","PubChem SID":"SID363999268","BNIP3L mRNA, set 1":0.146}
{"gene knocked down":"H2BC3 (H2B clustered histone 3)","PubChem SID":"SID364001981","BNIP3L mRNA, set 1":0.107}
{"gene knocked down":"CYP11B2 (cytochrome P450 family 11 subfamily B member 2)","PubChem SID":"SID363991821","BNIP3L mRNA, set 1":0.0945}
{"gene knocked down":"SERPINB5 (serpin family B member 5)","PubChem SID":"SID363993807","BNIP3L mRNA, set 1":0.158}
{"gene knocked down":"GRK3 (G protein-coupled receptor kinase 3)","PubChem SID":"SID363996087","BNIP3L mRNA, set 1":0.0778}
{"gene knocked down":"GRK3 (G protein-coupled receptor kinase 3)","PubChem SID":"SID363996087","BNIP3L mRNA, set 1":0.0984}
{"gene knocked down":"MT-ND1 (mitochondrially encoded NADH dehydrogenase 1)","PubChem SID":"SID364004841","BNIP3L mRNA, set 1":0.195}
{"gene knocked down":"CEMIP (cell migration inducing hyaluronidase 1)","PubChem SID":"SID364001183","BNIP3L mRNA, set 1":0.153}
{"gene knocked down":"POLH (DNA polymerase eta)","PubChem SID":"SID363997299","BNIP3L mRNA, set 1":0.0741}
{"gene knocked down":"MPPED1 (metallophosphoesterase domain containing 1)","PubChem SID":"SID363992830","BNIP3L mRNA, set 1":0.204}
{"gene knocked down":"ZW10 (zw10 kinetochore protein)","PubChem SID":"SID363995683","BNIP3L mRNA, set 1":0.118}
{"gene knocked down":"SEC61G (SEC61 translocon subunit gamma)","PubChem SID":"SID363998734","BNIP3L mRNA, set 1":0.141}
{"gene knocked down":"KRTAP4-9 (keratin associated protein 4-9)","PubChem SID":"SID364005501","BNIP3L mRNA, set 1":0.0783}
{"gene knocked down":"RUNX2 (RUNX family transcription factor 2)","PubChem SID":"SID363995336","BNIP3L mRNA, set 1":0.0814}
